Measurements as given in the supplement of paper PMC10849652.
This is one part of the list. Residues, ends and D or L forms follow the SMILES beside them. *: point of attachment. Cbz = O=C(OCc1ccccc1)*

Amino acid sequences for entries named in this document (tags omitted). A change or cut given only in a name is not applied to a line headed by its entry.
UniProt Q9NQT5, whole entry, looked up: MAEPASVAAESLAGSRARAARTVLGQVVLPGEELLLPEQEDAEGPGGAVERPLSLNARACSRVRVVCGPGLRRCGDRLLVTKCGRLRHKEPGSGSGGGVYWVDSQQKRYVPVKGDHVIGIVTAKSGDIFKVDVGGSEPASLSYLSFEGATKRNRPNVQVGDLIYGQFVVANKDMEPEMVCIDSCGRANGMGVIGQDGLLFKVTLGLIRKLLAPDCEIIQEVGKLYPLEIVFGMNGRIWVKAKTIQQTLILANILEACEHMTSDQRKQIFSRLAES
UniProt P42566: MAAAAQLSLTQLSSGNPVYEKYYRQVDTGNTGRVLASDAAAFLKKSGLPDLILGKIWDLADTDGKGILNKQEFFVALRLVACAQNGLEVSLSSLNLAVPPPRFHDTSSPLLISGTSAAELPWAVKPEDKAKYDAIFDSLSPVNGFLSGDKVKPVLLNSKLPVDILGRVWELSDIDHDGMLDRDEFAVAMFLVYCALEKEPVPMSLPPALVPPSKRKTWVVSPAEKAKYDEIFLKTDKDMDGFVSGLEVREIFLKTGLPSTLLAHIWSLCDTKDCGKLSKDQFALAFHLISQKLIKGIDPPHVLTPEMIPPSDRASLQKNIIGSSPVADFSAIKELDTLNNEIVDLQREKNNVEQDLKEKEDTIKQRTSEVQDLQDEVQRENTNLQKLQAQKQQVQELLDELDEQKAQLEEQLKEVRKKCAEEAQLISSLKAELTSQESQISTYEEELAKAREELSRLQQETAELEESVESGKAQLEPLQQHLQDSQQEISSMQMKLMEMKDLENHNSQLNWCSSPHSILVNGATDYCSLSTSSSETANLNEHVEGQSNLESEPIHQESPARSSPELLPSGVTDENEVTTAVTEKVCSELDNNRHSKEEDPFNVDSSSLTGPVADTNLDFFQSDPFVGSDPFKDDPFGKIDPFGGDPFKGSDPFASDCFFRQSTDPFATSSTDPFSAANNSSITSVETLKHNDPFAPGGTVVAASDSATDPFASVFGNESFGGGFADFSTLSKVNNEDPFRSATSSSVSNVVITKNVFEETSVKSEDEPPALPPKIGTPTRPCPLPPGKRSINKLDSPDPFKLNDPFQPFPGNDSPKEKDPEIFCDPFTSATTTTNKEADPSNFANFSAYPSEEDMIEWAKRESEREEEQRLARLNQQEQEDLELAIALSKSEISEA
UniProt Q6P587: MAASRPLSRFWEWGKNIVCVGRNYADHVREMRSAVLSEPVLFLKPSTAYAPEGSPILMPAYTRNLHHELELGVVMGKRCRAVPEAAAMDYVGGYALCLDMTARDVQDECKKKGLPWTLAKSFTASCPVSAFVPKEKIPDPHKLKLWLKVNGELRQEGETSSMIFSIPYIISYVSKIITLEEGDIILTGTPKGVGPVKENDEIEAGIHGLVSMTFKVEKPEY
UniProt P28715: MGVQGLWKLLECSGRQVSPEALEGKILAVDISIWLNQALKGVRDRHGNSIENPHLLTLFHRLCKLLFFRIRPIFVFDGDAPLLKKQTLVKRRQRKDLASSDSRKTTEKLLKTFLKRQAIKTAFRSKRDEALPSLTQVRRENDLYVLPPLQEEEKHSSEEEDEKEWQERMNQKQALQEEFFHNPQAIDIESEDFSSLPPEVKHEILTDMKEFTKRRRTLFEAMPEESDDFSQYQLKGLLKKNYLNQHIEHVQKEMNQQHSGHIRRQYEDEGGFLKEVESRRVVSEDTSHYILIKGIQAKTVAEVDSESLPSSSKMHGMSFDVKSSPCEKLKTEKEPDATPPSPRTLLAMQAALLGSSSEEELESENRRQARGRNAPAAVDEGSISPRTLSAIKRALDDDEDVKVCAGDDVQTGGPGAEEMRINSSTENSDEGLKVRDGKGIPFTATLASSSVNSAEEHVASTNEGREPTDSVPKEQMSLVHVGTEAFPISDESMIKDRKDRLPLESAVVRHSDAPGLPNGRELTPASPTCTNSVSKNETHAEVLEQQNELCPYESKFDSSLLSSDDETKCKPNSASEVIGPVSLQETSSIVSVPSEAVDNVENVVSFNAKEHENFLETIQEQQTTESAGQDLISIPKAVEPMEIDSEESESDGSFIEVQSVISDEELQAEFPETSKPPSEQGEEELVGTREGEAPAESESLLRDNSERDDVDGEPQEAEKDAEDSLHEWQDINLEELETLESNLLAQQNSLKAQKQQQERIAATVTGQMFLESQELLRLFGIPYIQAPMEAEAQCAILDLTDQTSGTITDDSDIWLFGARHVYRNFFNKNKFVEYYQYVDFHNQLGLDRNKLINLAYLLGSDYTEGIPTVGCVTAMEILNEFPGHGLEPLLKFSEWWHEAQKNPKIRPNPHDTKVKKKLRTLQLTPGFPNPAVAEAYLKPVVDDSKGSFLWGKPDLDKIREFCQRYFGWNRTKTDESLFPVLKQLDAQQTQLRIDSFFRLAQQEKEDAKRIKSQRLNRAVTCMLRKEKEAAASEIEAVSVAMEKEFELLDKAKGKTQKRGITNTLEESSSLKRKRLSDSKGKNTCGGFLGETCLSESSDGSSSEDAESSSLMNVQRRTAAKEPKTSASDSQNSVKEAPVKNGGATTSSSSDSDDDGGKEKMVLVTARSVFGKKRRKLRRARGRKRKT
UniProt Q96B26, whole entry, looked up: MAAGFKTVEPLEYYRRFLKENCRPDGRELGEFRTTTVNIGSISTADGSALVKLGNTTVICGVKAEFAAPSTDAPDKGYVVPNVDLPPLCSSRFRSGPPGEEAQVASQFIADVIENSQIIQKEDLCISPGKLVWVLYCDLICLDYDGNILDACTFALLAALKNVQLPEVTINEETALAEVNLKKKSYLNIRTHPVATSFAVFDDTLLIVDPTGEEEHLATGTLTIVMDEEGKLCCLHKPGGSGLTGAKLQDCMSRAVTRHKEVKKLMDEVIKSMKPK
UniProt Q7Z309: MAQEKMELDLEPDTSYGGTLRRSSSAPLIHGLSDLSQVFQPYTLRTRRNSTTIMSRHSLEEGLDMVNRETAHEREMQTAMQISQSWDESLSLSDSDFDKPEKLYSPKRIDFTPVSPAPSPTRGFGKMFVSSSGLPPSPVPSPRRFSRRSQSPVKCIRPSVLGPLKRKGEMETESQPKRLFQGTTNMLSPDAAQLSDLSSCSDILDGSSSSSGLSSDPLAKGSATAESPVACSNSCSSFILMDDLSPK
UniProt P38117: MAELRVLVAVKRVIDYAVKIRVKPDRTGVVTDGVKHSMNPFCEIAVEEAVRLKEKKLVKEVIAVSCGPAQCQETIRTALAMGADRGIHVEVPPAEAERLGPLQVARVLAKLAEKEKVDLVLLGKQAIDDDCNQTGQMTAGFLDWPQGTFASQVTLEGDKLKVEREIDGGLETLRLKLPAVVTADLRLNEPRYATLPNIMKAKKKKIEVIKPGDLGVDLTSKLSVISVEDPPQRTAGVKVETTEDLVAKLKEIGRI
UniProt Q01469, whole entry, looked up: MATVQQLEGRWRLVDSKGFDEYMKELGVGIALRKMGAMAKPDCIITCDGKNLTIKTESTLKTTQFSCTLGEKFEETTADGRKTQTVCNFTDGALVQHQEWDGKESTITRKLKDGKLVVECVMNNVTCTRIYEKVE
UniProt P19447: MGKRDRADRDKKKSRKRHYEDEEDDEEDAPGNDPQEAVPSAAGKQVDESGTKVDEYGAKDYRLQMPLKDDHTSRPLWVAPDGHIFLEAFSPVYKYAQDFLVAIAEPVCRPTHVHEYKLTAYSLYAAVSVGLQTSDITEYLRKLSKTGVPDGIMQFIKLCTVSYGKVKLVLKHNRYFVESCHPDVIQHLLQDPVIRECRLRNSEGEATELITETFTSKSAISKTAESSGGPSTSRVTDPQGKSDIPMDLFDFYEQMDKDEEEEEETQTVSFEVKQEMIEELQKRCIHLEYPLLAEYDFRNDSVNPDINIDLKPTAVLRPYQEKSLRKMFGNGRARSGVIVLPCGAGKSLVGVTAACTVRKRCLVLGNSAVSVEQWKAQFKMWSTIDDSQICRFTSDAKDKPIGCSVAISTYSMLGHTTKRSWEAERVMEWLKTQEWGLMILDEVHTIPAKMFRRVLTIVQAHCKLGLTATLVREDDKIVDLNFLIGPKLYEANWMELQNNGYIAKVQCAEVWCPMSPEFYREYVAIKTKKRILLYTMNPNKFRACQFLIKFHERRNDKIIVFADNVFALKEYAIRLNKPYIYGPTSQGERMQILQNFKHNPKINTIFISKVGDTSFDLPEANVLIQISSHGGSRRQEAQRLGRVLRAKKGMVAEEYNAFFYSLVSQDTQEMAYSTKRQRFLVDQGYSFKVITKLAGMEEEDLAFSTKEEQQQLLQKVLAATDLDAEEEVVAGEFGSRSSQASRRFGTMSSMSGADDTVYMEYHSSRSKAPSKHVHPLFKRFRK
UniProt Q6IPR1: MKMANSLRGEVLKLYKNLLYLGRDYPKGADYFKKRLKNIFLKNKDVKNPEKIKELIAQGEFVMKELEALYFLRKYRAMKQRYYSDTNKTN
UniProt P84090, whole entry, looked up: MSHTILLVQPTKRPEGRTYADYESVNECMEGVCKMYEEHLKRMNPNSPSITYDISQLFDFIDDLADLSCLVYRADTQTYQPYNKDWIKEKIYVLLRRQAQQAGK
UniProt Q7L775: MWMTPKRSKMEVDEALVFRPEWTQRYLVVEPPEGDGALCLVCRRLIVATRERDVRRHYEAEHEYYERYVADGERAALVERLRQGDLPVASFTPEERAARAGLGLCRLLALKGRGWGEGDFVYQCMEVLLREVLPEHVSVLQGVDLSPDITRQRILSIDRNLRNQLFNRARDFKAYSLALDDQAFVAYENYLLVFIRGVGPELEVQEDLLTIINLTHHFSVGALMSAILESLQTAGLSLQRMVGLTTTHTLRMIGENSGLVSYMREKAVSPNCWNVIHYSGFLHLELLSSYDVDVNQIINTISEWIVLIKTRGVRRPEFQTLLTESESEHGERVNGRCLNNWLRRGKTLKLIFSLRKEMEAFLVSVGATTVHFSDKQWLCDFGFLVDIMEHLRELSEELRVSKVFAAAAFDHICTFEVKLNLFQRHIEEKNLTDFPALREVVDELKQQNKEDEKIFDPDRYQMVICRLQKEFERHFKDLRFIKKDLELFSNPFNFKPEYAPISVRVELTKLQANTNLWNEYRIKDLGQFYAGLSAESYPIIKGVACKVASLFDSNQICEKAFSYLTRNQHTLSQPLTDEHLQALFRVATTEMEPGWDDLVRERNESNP
UniProt Q96DZ1: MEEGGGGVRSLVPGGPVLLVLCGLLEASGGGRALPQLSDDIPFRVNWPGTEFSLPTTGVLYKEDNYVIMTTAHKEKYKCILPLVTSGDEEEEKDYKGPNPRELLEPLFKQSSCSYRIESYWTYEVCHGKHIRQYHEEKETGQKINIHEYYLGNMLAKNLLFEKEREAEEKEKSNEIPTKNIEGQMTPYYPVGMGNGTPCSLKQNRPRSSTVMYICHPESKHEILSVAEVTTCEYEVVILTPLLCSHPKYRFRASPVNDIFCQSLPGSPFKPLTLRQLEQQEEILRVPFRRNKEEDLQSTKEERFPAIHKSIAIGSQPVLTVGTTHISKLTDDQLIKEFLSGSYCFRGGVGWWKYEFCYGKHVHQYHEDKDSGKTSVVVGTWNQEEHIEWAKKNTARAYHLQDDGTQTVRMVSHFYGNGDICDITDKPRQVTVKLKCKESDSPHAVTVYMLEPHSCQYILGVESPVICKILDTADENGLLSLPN
UniProt Q06265, whole entry, looked up: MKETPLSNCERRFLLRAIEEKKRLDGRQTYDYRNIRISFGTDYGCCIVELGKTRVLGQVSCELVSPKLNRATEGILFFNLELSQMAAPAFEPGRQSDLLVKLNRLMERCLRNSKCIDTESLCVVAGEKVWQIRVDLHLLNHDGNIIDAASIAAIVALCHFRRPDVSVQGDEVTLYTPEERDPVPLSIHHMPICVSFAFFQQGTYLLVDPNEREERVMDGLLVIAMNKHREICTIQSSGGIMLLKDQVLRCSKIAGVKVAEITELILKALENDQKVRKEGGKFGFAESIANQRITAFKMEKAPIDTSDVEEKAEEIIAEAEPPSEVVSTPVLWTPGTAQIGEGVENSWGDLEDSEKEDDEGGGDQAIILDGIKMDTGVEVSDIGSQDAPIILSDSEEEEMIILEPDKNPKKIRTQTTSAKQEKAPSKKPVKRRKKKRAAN
UniProt Q13868, whole entry, looked up: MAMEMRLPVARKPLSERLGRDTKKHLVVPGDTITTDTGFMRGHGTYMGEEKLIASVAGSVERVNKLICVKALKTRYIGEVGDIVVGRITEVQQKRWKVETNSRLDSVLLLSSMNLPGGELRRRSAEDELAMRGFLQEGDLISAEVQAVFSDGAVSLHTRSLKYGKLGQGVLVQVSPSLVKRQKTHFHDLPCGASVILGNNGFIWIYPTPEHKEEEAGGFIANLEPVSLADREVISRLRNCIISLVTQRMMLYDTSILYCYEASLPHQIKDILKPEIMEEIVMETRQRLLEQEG

Experiments:
Assay in all cases: log2 fold change, soluble protein after heating vs DMSO (PISA); higher = thermal stabilisation; K562 cells, 10 uM, 30 min; active = over 0.2 and 3.5 SD of the protein, either way, in both replicates (recomputed)
[1] = compound: C1COCCN1CCN2C3=CC=CC=C3N=C2NC(=O)C4=CC(=CC=C4)[N+](=O)[O-] [IRAK-1-4 Inhibitor I]
Outline: (§1)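 Quantification of soluble protein used TMTpro 16plex LC-MS/MS, with channel sums equalised. Samples were the supernatant after 21,000xg for 90 min of pooled aliquots from K562 cells (2×10^6 cells/mL) treated with 10 μM compound for 30 min, heated for 3 min over 48°C-58°C, and extracted in PBS with 0.5% NP-40 at 4°C. Values, from duplicates, describe thermal stability against control samples on a log2 fold-change scale.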

[2] = compound: C=CC(=O)N1CCC[C@@H](n2nc(-c3ccc(Oc4ccccc4)cc3)c3c(N)ncnc32)C1 [ibrutinib]
Outline: as §1

[3] = compound: CC(=O)c1cnc2ccc(-c3cc(Cl)c(O)c(Cl)c3)nc2c1N[C@H]1CC[C@H](CN(C)C)CC1
Outline: as §1

[4] = compound: CC(C)(C)Cn1c(N)nc2ccc(-c3[nH]c(C(C)(C)C)nc3-c3ccc(F)cc3)nc21 [ralimetinib]
Outline: as §1

[5] = compound: CC(C)(O)CC(=O)NCCn1ccc2ncnc(Nc3ccc(Oc4cccc(C(F)(F)F)c4)c(Cl)c3)c21
Outline: as §1

[6] = compound: CC(C)C1=C2N=C(C=C(N2N=C1)NCC3=CC=CC=C3)NCCCCCCN
Outline: as §1

[7] = compound: CC(C)C[C@@H](C=O)NC(=O)[C@H](CC(C)C)NC(=O)[C@H](CC(C)C)NC(=O)OCc1ccccc1
Outline: as §1

[8] = compound: CC(C)N(C[C@H]1O[C@@H](n2cnc3c(N)ncnc32)[C@H](O)[C@@H]1O)[C@H]1C[C@@H](CCc2nc3cc(C(C)(C)C)ccc3[nH]2)C1 [pinometostat]
Outline: as §1

[9] = compound: CC1=C(C(CC(=O)N1)C2=CC=C(C=C2)C(F)(F)F)C(=O)NC3=C(C=C4C(=C3)C=NN4)F
Outline: as §1

[10] = compound: CC1=C(C2=C(C=C1)C(=O)C3=CC=CC=C3N2CCCN)C
Outline: as §1

Measured: log2 fold change

EXOSC3 (UniProt Q9NQT5)
inactive: [1] -0.023 | [2] 0 | [3] 0.001 | [4] 0.01 | [5] 0.007 | [6] -0.014 | [7] 0.004 | [8] 0.078 | [9] 0.017 | [10] 0.124

EXOSC6 (UniProt Q5RKV6)
inactive: [1] 0.051 | [2] 0.032 | [3] 0.01 | [4] 0.014 | [5] 0.035 | [6] 0.095 | [7] -0.07 | [8] -0.014 | [9] 0.007 | [10] 0.059

EPS15 (UniProt P42566)
inactive: [1] -0.023 | [2] -0.039 | [3] 0.042 | [4] 0.024 | [5] -0.081 | [6] -0.183 | [7] 0.006 | [8] 0.008 | [9] -0.038 | [10] -0.153

FAHD1 (UniProt Q6P587)
inactive: [1] 0.049 | [2] 0.075 | [3] -0.008 | [4] -0.023 | [5] 0.033 | [6] -0.037 | [7] -0.017 | [8] 0.005 | [9] 0.036 | [10] 0.005

FAHD2B (UniProt Q6P2I3)
inactive: [1] 0.014 | [2] 0.183 | [3] -0.047 | [4] -0.064 | [5] -0.118 | [6] 0.169 | [7] -0.098 | [8] -0.015 | [9] -0.01

ETF1 (UniProt P62495)
inactive: [1] 0.039 | [2] -0.017 | [3] -0.034 | [4] -0.043 | [5] -0.023 | [6] -0.055 | [7] -0.003 | [8] 0.014 | [9] -0.001 | [10] 0.015

ERCC5 (UniProt P28715)
inactive: [1] 0.134 | [2] 0.11 | [3] 0.022 | [4] 0.005 | [5] 0.096 | [6] -0.08 | [7] -0.025 | [8] 0.082 | [9] 0.018 | [10] -0.284

EXOSC8 (UniProt Q96B26)
inactive: [1] 0.014 | [2] 0.027 | [3] 0.003 | [4] -0.063 | [5] 0.009 | [6] 0.062 | [7] 0.04 | [8] 0.005 | [9] 0.028 | [10] -0.012

EPRS (UniProt P07814)
inactive: [1] -0.118 | [2] 0.006 | [3] 0.202 | [4] 0.187 | [5] 0.032 | [6] -0.168 | [7] 0.137 | [8] 0.458 | [9] 0.05 | [10] -0.052

FAM122B isoform 3 (UniProt Q7Z309)
inactive: [1] -0.002 | [2] 0.076 | [3] -0.22 | [4] 0.012 | [5] 0.278 | [6] 0.052 | [7] -0.034 | [8] 0.016 | [9] 0.05 | [10] -0.044

ERP29 (UniProt P30040)
inactive: [1] -0.002 | [2] 0.003 | [3] 0.022 | [4] 0.008 | [5] 0.037 | [6] -0.019 | [7] 0.006 | [8] -0.023 | [9] 0.001 | [10] -0.015

ETFB (UniProt P38117)
inactive: [1] 0.071 | [2] 0.006 | [3] -0.005 | [4] -0.094 | [5] 0.057 | [6] -0.002 | [7] 0.01 | [8] -0.035 | [9] 0.01 | [10] 0.003

FABP5 (UniProt Q01469)
inactive: [1] 0.03 | [2] -0.007 | [3] 0.045 | [4] 0.035 | [5] 0.012 | [6] 0.029 | [7] -0.08 | [8] -0.044 | [9] 0.037 | [10] 0.001

ERGIC1 (UniProt Q969X5)
inactive: [1] 0.05 | [2] 0.025 | [3] -0.011 | [4] -0.023 | [5] -0.036 | [6] -0.033 | [7] 0.006 | [8] -0.018 | [9] -0.037 | [10] -0.043

ESYT2 isoform 2 (UniProt A0FGR8)
inactive: [1] 0.02 | [2] -0.003 | [3] -0.111 | [4] 0 | [5] -0.009 | [6] -0.11 | [7] 0 | [8] -0.04 | [9] -0.04 | [10] 0.086

EPHX1 (UniProt P07099)
inactive: [1] 0.01 | [2] 0.034 | [3] -0.003 | [4] -0.044 | [5] 0.025 | [6] 0.042 | [7] -0.012 | [8] -0.04 | [9] 0.005 | [10] 0.011

FAM20B (UniProt O75063)
inactive: [1] -0.015 | [2] -0.035 | [3] -0.07 | [4] 0.001 | [5] -0.009 | [6] 0.043 | [7] -0.018 | [8] -0.003 | [9] 0.051 | [10] -0.022

ERCC3 (UniProt P19447)
inactive: [1] -0.101 | [2] 0.074 | [3] -0.102 | [4] 0.09 | [5] 0.016 | [6] -0.149 | [7] 0.026 | [8] -0.018 | [9] -0.116 | [10] 0.114

ETFRF1 (UniProt Q6IPR1)
inactive: [1] 0.075 | [2] -0.056 | [3] 0.01 | [4] -0.031 | [5] 0.044 | [6] 0.053 | [7] -0.071 | [8] -0.014 | [9] 0.036 | [10] -0.001

EXOSC7 (UniProt Q15024)
inactive: [1] 0.028 | [2] 0.021 | [3] 0.002 | [4] -0.008 | [5] 0.055 | [6] 0.09 | [7] 0.016 | [8] -0.02 | [9] 0.025 | [10] 0.01

EXOC3 (UniProt O60645)
inactive: [1] 0 | [2] 0.048 | [3] -0.029 | [4] 0.11 | [5] -0.088 | [6] -0.36 | [7] 0.033 | [8] 0.068 | [9] 0.07 | [10] 0.004

ERVK3-1, A0A0U1RQV1
inactive: [1] 0.02 | [2] -0.014 | [3] -0.114 | [4] -0.094 | [5] -0.02 | [6] 0.043 | [7] -0.025 | [8] 0.031 | [9] 0.048 | [10] 0.145

ERH (UniProt P84090)
inactive: [1] -0.08 | [2] 0.231 | [3] -0.203 | [4] -0.151 | [5] -0.138 | [6] -0.028 | [7] 0.02 | [8] -0.035 | [9] 0.006 | [10] 0.154

EWSR1 isoform 5 (UniProt Q01844)
inactive: [1] -0.016 | [2] 0.055 | [3] 0.023 | [4] -0.004 | [5] 0.087 | [6] 0.015 | [7] 0.057 | [8] -0.014 | [9] -0.019 | [10] 0.18

Fetched one by one from above, 2 records:
ERCC3 (UniProt P19447)
inactive: [1] -0.101 | [2] 0.074 | [3] -0.102 | [4] 0.09 | [5] 0.016 | [6] -0.149 | [7] 0.026 | [8] -0.018 | [9] -0.116 | [10] 0.114

EWSR1 isoform 5 (UniProt Q01844)
inactive: [1] -0.016 | [2] 0.055 | [3] 0.023 | [4] -0.004 | [5] 0.087 | [6] 0.015 | [7] 0.057 | [8] -0.014 | [9] -0.019 | [10] 0.18

(further entries)

EPM2AIP1 (UniProt Q7L775)
inactive: [1] 0.003 | [2] -0.004 | [3] -0.016 | [4] -0.037 | [5] -0.019 | [6] -0.028 | [7] -0.002 | [8] 0.009 | [9] 0.009 | [10] 0.006

ERLEC1 (UniProt Q96DZ1)
inactive: [1] 0.006 | [2] 0.022 | [3] -0.02 | [4] 0.016 | [5] -0.006 | [6] -0.032 | [7] -0.013 | [8] 0.03 | [9] 0.013 | [10] 0.022

ESPL1 (UniProt Q14674)
inactive: [1] 0.061 | [2] -0.055 | [3] -0.202 | [4] -0.076 | [5] 0.114 | [6] 0.144 | [7] -0.007 | [8] 0.04 | [9] 0.039

EXOSC9 isoform 2 (UniProt Q06265)
inactive: [1] 0.005 | [2] 0.019 | [3] 0.082 | [4] -0.045 | [5] 0.005 | [6] 0.069 | [7] 0.095 | [8] -0.002 | [9] 0.016 | [10] 0.026

EXOSC2 (UniProt Q13868)
inactive: [1] 0.022 | [2] 0.049 | [3] -0.002 | [4] -0.008 | [5] 0 | [6] 0.07 | [7] -0.028 | [8] -0.011 | [9] 0.014 | [10] 0.06

ESRRA (UniProt P11474)
inactive: [1] 0.038 | [2] 0.016 | [3] -0.029 | [4] 0.002 | [5] -0.141 | [6] 0.141 | [7] 0.047 | [8] 0.136 | [9] 0.061 | [10] -0.078
